Experimental data published in US6380198B1 (Laboratoire Medidom S.A., priority 1997, dated 2002).
At least one structure is not confirmed: it was looked up by name or label, or the drawing left a doubt.

Legend:
[1] = system: intraocular pressure of rabbits with ocular hypertension; test: Intraocular pressure in rabbits with ocular hypertension induced by α-chymotrypsin; format: in vivo, rabbit (Vienna Blue, pigmented); details: 50 μl eye-drops; 0.050% flunarizine, equimolar comparators, 0.5% timolol
[2] = system: intraocular pressure of rabbits showing normal baseline intraocular pressure; test: Intraocular pressure in rabbits with normal intraocular pressure after topical instillation; format: in vivo, rabbit (Vienna Blue, pigmented); details: 50 μl eye-drops; 0.050% flunarizine, equimolar comparators, 0.5% timolol
[3] = system: intraocular pressure; details: Payene et al. 1990; cited from earlier work
[4] = system: intraocular pressure; details: patients with moderate hypertension, normal intraocular pressure (Monica et al. 1983); cited from earlier work

Compound | Effect on intraocular pressure in rabbits with ocular hypertension, in words [1] | Effect on intraocular pressure in rabbits with normal pressure, in words [2] | Intraocular pressure after systemic administration to rabbits [3] | Intraocular pressure after topical administration to rabbits [3] | Intraocular pressure after oral administration [4]
COC(=O)C1=C(C)NC(C)=C(C(=O)OC)C1c1ccccc1[N+](=O)[O-] [nifedipine] | do not show any significant reduction | Some minor reduction | reduction in the intraocular pressure | did not detect any significant effect | –
CCOC(=O)C1=C(C)NC(C)=C(C(=O)OC)C1c1cccc([N+](=O)[O-])c1 (centres unmarked) [nitrendipine] | – | – | – | – | slightly lowered
